Assay results published in the supplement of paper PMC12462457.
Where a name gives a salt, the structure may show the parent alone. ± gives the standard deviation of the averaged measurements. The list shows a part of the results. This data set is noisy: repeats of one test often differ as much as different tests do.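 Imaging of DAPI-stained nuclei was used to count cells; those without phalloidin-stained cytoplasm were treated as dead and excluded. Every well's count was divided by the median of same-plate vehicle wells, then averaged across two replicate plates.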

Test system: OVCAR8
Experiment: cell count relative to DMSO vehicle (fold change); higher = more surviving senescent cells (less killing)
Details: senescence inducer: cisplatin 10 µM 48 h, then 6 d recovery (CP senescent), exposure time 24 h

Row | Structure (SMILES) | cell count (compound dose 1 µM) | cell count (compound dose 5 µM)
1 | C=C1C(=O)O[C@@H]2/C=C(\C)CC/C=C(\C)CC[C@@H]12 [Costunolide] | 0.9175 ± 0.0078 | 0.486 ± 0.024
2 | Oc1ccc2c(c1)OCO2 [Sesamol] | 1.02 ± 0.16 | 0.699 ± 0.3
3 | Nc1c[nH]c(=O)c2cc(-c3ccccc3)sc12 [Thienopyridone] | 0.776 ± 0.018 | 0.745 ± 0.092
4 | COc1ccc([C@@H]2CC(=O)c3c(O)cc(O[C@@H]4O[C@H](CO[C@@H]5O[C@@H](C)[C@H](O)[C@@H](O)[C@H]5O)[C@@H](O)[C@H](O)[C@H]4O)cc3O2)cc1O [Hesperidin] | 0.937 ± 0.072 | 1.18 ± 0.05
5 | CC(C)(C)S(=O)(=O)c1cc2c(Nc3ccc4scnc4c3)ncnc2cc1OCCO | 0.825 ± 0.21 | 0.595 ± 0.096
6 | Cc1cc(OCCCc2c3n(c4c(-c5c(C)nn(C)c5C)c(Cl)ccc24)[C@H](C)CN(c2cn(C)c4ccc(C(=O)O)cc24)C3=O)cc(C)c1Cl | 0.807 ± 0.17 | 0.625 ± 0.23
7 | CC(C(=O)O)c1ccc2c(c1)Cc1cccnc1O2 (stereo not drawn) | 1.29 ± 0.14 | 1.09 ± 0.2
8 | Clc1ccc(NN=C(c2ccccc2)c2ccccn2)nc1 | 1.01 ± 0.24 | 0.467 ± 0.16
9 | CN[C@H](C(=O)N[C@H](C(=O)N(C)[C@H](/C=C(\C)C(=O)O)C(C)C)C(C)(C)C)C(C)(C)c1ccccc1 [Taltobulin] | 0.756 ± 0.057 | 0.617 ± 0.065
10 | COc1cc(O)c2c(c1)oc(=O)c1c3cc(O)c(O)cc3oc21 [Wedelolactone] | 1.19 ± 0.055 | 0.513 ± 0.069
11 | COC(=O)C[C@H](NC(=O)[C@H](C)NC(=O)[C@@H](NC(=O)OCc1ccccc1)C(C)C)C(=O)CF | 1.02 ± 0.061 | 1.2 ± 0.11
12 | Cc1c(C)c2c(c(C)c1O)CCC(C)(COc1ccc(CC3SC(=O)NC3=O)cc1)O2 (stereo not drawn) [Troglitazone] | 0.832 ± 0.11 | 0.815 ± 0.043
13 | COc1ccc(-c2cc(=O)c3c(O)cc(O)c(-c4cc(-c5cc(=O)c6c(O)cc(O)cc6o5)ccc4OC)c3o2)cc1 | 1.04 ± 0.047 | 0.917 ± 0.42
14 | Cc1cc(-c2ncc(-c3cccnc3)cc2/C=C/c2ccccc2)cnc1-c1cccnc1 [Pyridoclax] | 0.998 ± 0.041 | 0.917 ± 0.11
15 | COCCOc1cnc2ccn([C@H](C)c3nnc4c(F)cc(-c5cnn(C)c5)cn34)c(=O)c2c1 | 0.797 ± 0.12 | 0.913 ± 0.12
16 | COc1ccc(-c2oc3cc(O)cc(O)c3c(=O)c2O)cc1 [Kaempferide] | 1.11 ± 0.059 | 0.86 ± 0.24
17 | O=C1[C@H](Cc2ccc(O)cc2)N2C(=O)CCN(C(=O)NCc3ccccc3)[C@H]2CN1Cc1cccc2ccccc12 | 0.9305 ± 0.0064 | 0.861 ± 0.04
18 | C[C@@H]1O[C@@H](O[C@H]2[C@H](O[C@H]3CC[C@]4(C)[C@H]5CC=C6[C@@H]7CC(C)(C)CC[C@]7(C(=O)O)CC[C@@]6(C)[C@]5(C)CC[C@H]4C3(C)C)OC[C@H](O[C@@H]3O[C@H](CO)[C@@H](O)[C@H](O)[C@H]3O)[C@@H]2O)[C@H](O)[C@H](O)[C@H]1O [Hederacolchiside A1] | 1.04 ± 0.23 | 0.0395 ± 0.021
19 | COC(=O)Nc1nc2cc(C(=O)c3ccccc3)ccc2[nH]1 [Mebendazole] | 0.773 ± 0.12 | 0.639 ± 0.16
20 | CC1C(=O)OC2C(O)C34C5CC(C(C)(C)C)C36C(OC(=O)C6O)OC4(C(=O)O5)C12O (stereo not drawn) [Ginkgolide B] | 1 ± 0.17 | 0.866 ± 0.15
21 | O=c1ccc2ccc(O)cc2o1 | 0.714 ± 0.052 | 0.886 ± 0.2
22 | C=C1C[C@@]2(O)O[C@@]3(C[C@H]2C(C)C)[C@@H](C)CC[C@@H]13 [Curcumol] | 1.07 ± 0.38 | 0.89 ± 0.052

Row | Structure (SMILES) | cell count (compound dose 1 µM) | cell count (compound dose 5 µM)
23 | N[C@H](Cc1c[nH]c2ccccc12)C(=O)N/N=C/c1ccc2nccnc2c1 [Rhosin (hydrochloride)] | 1.24 ± 0.11 | 1.03 ± 0.1
24 | CC(C)c1cc(-c2n[nH]c(=O)n2-c2ccc3c(ccn3C)c2)c(O)cc1O [Ganetespib] | 0.41 ± 0.035 | 0.345 ± 0.061
25 | NS(=O)(=O)OC[C@H]1C[C@@H](Nc2ccnc3cc(-c4cccc(SC(F)(F)F)c4)nn23)[C@H](O)[C@@H]1O | 0.0245 ± 0.018 | 0.016 ± 0.0028
26 | N#CSc1cc(SC#N)c(N)nc1N | 1.02 ± 0.1 | 0.771 ± 0.1
27 | O=C(/C=C/c1ccc(O)cc1)C(C(=O)/C=C/c1ccc(O)cc1)C(=O)Nc1ccccc1 | 0.718 ± 0.1 | 0.533 ± 0.24
28 | COc1c2c(cc3c1-c1c(cc4c(c1OC)OCO4)C[C@H](C)[C@H](C)C3)OCO2 [Schisandrin C] | 0.966 ± 0.13 | 1.25 ± 0.037
29 | CCCCc1nc2cc(/C=C/C(=O)NO)ccc2n1CCN(CC)CC [Pracinostat (SB939)] | 0.468 ± 0.0078 | 0.267 ± 0.067
30 | CS(=O)(=O)c1ncc(Cl)c(C(=O)O)n1 | 0.73 ± 0.057 | 0.521 ± 0.15
31 | CCc1c(C)sc(NC(=S)NC(=O)c2ccc(Cl)cc2)c1C(N)=O | 1.02 ± 0.11 | 0.61 ± 0.17
32 | N=C(N)Nc1ccc(C(=O)Oc2ccc3cc(C(=N)N)ccc3c2)cc1 [Nafamostat (mesylate)] | 1.15 ± 0.03 | 0.807 ± 0.61
33 | NCCN1C(=O)c2cccc3c(Sc4ccc(Br)cc4)ccc(c23)C1=O | 1.07 ± 0.16 | 1.22 ± 0.073
34 | CC(C)=CC[C@@H](O)C1=CC(=O)c2c(O)ccc(O)c2C1=O [Shikonin] | 0.992 ± 0.14 | 0.981 ± 0.18
35 | COc1ccc2ccc(=O)oc2c1CC=C(C)C [Osthole] | 0.736 ± 0.054 | 0.816 ± 0.068
36 | CC(=O)Oc1ccccc1C(=O)O | 1.024 ± 0.0035 | 0.87 ± 0.36
37 | O=c1oc2cc(O)ccc2c2ccc(O)cc12 [Urolithin A] | 1.08 ± 0.079 | 0.747 ± 0.16
38 | NCCCCCCNS(=O)(=O)c1cccc2c(Cl)cccc12 [W-7 (hydrochloride)] | 1.23 ± 0.063 | 1.17 ± 0.18
39 | C[C@H](NC(=O)/C(C#N)=C/c1cccc(Br)n1)c1ccccc1 | 0.864 ± 0.062 | 0.388 ± 0.068
40 | CC1(C)CC[C@]2(C(=O)n3ccnc3)CC[C@]3(C)[C@H](C(=O)C=C4[C@@]5(C)C=C(C#N)C(=O)C(C)(C)[C@@H]5CC[C@]43C)[C@@H]2C1 | 0.0955 ± 0.0092 | 0.0205 ± 0.029
41 | O=c1[nH]c(=S)[nH]c(-c2ccccc2)c1Cc1c(O)ccc2ccccc12 [Cambinol] | 1.11 ± 0.24 | 1.12 ± 0.34
42 | CCCC(=O)c1c(O)c(Cc2c(O)c(Cc3c(O)c(C)c(OC)c(C(=O)CCC)c3O)c(O)c(C(=O)[C@@H](C)CC)c2O)c(O)c(C)c1OC [Agrimol B] | 0.962 ± 0.17 | 0.826 ± 0.12
43 | Cn1nc(C(F)(F)F)cc1-c1ccc(OCc2ccc(Cl)cc2)c(-c2cc(C(F)(F)F)cc(C(F)(F)F)c2)c1O | 1.04 ± 0.051 | 1.07 ± 0.34
44 | CN[C@@H](C)C(=O)N[C@H](C(=O)N1CCC[C@H]1C(=O)N[C@H]1c2ccccc2C[C@H]1OCC#CC#CCO[C@@H]1Cc2ccccc2[C@@H]1NC(=O)[C@@H]1CCCN1C(=O)[C@@H](NC(=O)[C@H](C)NC)C1CCCCC1)C1CCCCC1 | 0.133 ± 0.062 | 0.0775 ± 0.035

3 entries from above, sorted by count of non-hydrogen atoms, low to high.
Row | Structure (SMILES) | cell count (compound dose 1 µM) | cell count (compound dose 5 µM)
26 | N#CSc1cc(SC#N)c(N)nc1N | 1.02 ± 0.1 | 0.771 ± 0.1
35 | COc1ccc2ccc(=O)oc2c1CC=C(C)C [Osthole] | 0.736 ± 0.054 | 0.816 ± 0.068
25 | NS(=O)(=O)OC[C@H]1C[C@@H](Nc2ccnc3cc(-c4cccc(SC(F)(F)F)c4)nn23)[C@H](O)[C@@H]1O | 0.0245 ± 0.018 | 0.016 ± 0.0028
